In the supplement of paper PMC8047044:
Structures can show the parent of a compound that is named as a salt. The list shows a part of the results. Most values come without repeats; read them as rough.

tested on: Neuro-2a; experiment: neurite formation score, plate-normalized to DMSO control mean 5.04 (score (0-8 scale)); higher = more or longer neurites; conditions: 10 µM

**Q.** For `NC1(c2ccc(-c3nc4ccn5c(=O)[nH]nc5c4cc3-c3ccccc3)cc2)CCC1` [MK-2206 dihydrochloride], which neurite formation score is on record?
**A.** Its neurite formation score is 3.21.

**Q.** `Cc1cn(-c2cc(NC(=O)c3ccc(C)c(Nc4nccc(-c5cccnc5)n4)c3)cc(C(F)(F)F)c2)cn1` [Nilotinib monohydrochloride monohydrate] was tested. Which neurite formation score did it give?
**A.** Its neurite formation score is 3.42.

**Q.** With `N#CC[C@H](C1CCCC1)n1cc(-c2ncnc3[nH]ccc23)cn1` as the compound, how does the neurite formation score read?
**A.** The neurite formation score was 5.54.

**Q.** `CC[C@@H]1C(=O)N(C)c2cnc(Nc3ccc(C(=O)NC4CCN(C)CC4)cc3OC)nc2N1C1CCCC1` was tested. Which neurite formation score did it give?
**A.** Its neurite formation score is 4.08.

**Q.** `FC(F)(F)c1ccc(CNc2ccc(Cc3c[nH]c4ncccc34)cn2)cc1` was tested. Which neurite formation score did it give?
**A.** Its neurite formation score is 0.189.

**Q.** Which neurite formation score does the source give for `CN(C)CCSSCCNC(=O)C1CCN(C(=O)CSc2ccc(Cl)cc2)CC1` here?
**A.** The neurite formation score was 1.43.

**Q.** Which neurite formation score does the source give for `O=C(Nc1c[nH]nc1-c1nc2ccc(CN3CCOCC3)cc2[nH]1)NC1CC1` here?
**A.** Its neurite formation score is 2.08.

**Q.** `Cc1cc(Nc2cc(N3CCN(C)CC3)nc(/C=C/c3ccccc3)n2)n[nH]1` [ENMD-2076 L-(+)-Tartaric acid] was tested. Which neurite formation score did it give?
**A.** Its neurite formation score is 0.424.

**Q.** How did the neurite formation score turn out when `Cn1cc(C2=C(c3cn(CCCSC(=N)N)c4ccccc34)C(=O)NC2=O)c2ccccc21` [Ro 31-8220 Mesylate] was run?
**A.** The neurite formation score was 0.189.

**Q.** With `O=C(CCCCCCC(=O)Nc1ccc(I)cc1)NO` [4-iodo-SAHA] as the compound, how does the neurite formation score read?
**A.** Its neurite formation score is 5.19.

**Q.** Which neurite formation score does the source give for `O=C1NCCSc2c1sc1ccc(O)cc21` here?
**A.** The neurite formation score was 6.08.

**Q.** `N#C/C(=C\c1ccc(O)c(O)c1)C(=O)NCc1ccccc1` was tested. Which neurite formation score did it give?
**A.** Its neurite formation score is 2.74.

**Q.** Which neurite formation score does the source give for `Cc1cc(Nc2cc(N3CCN(C)CC3)nc(Sc3ccc(NC(=O)C4CC4)cc3)n2)n[nH]1` [VX-680 (MK-0457,Tozasertib)] here?
**A.** The neurite formation score was 2.41.

**Q.** How did the neurite formation score turn out when `Cc1nc(-c2cn3c(n2)-c2ccc(-c4cnn(C(C)(C)C(N)=O)c4)cc2OCC3)n(C(C)C)n1` was run?
**A.** The neurite formation score was 2.43.

**Q.** With `Nc1nc(Nc2ccc(S(N)(=O)=O)cc2)nn1C(=O)c1c(F)cccc1F` as the compound, how does the neurite formation score read?
**A.** The neurite formation score was 3.08.

**Q.** Which neurite formation score does the source give for `O=S(=O)(c1cccc2cnccc12)N1CCCNCC1` [Fasudil (HA-1077) HCl] here?
**A.** The neurite formation score was 5.52.

**Q.** For `CC(C)c1cnn2c(NCc3ccccc3)cc(NCCCCCCN)nc12`, which neurite formation score is on record?
**A.** Its neurite formation score is 0.186.

**Q.** `CN(C)Cc1cccc(N=C(c2ccccc2)c2c(O)[nH]c3cc(C(=O)N(C)C)ccc23)c1` was tested. Which neurite formation score did it give?
**A.** Its neurite formation score is 4.19.

**Q.** How did the neurite formation score turn out when `CN1CCN(CCOc2cc(OC3CCOCC3)c3c(Nc4c(Cl)ccc5c4OCO5)ncnc3c2)CC1` [Saracatinib (AZD0530)] was run?
**A.** Its neurite formation score is 2.21.

**Q.** With `Cc1ccc(NC(=O)c2cccc(N(C)C)c2)cc1NC(=O)c1ccc(O)cc1` as the compound, how does the neurite formation score read?
**A.** Its neurite formation score is 4.09.

**Q.** `NC(=S)N/N=C/c1ncccc1N` [Triapine] was tested. Which neurite formation score did it give?
**A.** The neurite formation score was 4.52.

**Q.** How did the neurite formation score turn out when `CC[C@H](CO)Nc1nc(NCc2ccccc2)c2ncn(C(C)C)c2n1` [Roscovitine (Seliciclib,CYC202)] was run?
**A.** Its neurite formation score is 4.88.

**Q.** `COc1cc(CCc2cc(NC(=O)c3ccc(N4CC(C)NC(C)C4)cc3)n[nH]2)cc(OC)c1` (stereo not given) was tested. Which neurite formation score did it give?
**A.** The neurite formation score was 0.519.

**Q.** For `O=C(COc1ccc(Cl)cc1)NC1CCC(NC(=O)COc2ccc(Cl)cc2)CC1` (stereo not drawn) [ISRIB (trans-isomer)], which neurite formation score is on record?
**A.** The neurite formation score was 4.86.

**Q.** Which neurite formation score does the source give for `C#Cc1cccc(Nc2ncnc3cc4c(cc23)OCCOCCOCCO4)c1` [Icotinib] here?
**A.** Its neurite formation score is 5.42.
